Experimental data from the supplement of paper PMC10849652.
Some of the results follow.

Sequences of proteins named here, by UniProt entry; tags and fusion partners are left off. A change or cut given only in a name is not applied to a line headed by its entry.
UniProt Q9H4P4: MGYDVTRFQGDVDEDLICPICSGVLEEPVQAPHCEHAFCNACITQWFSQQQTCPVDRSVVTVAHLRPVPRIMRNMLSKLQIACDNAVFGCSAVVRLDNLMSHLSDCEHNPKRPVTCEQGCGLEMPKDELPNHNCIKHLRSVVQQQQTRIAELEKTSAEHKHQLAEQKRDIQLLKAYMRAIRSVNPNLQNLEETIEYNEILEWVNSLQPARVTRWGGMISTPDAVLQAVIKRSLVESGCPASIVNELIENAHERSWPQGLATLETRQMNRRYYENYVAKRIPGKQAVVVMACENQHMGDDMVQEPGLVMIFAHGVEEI
UniProt O95059: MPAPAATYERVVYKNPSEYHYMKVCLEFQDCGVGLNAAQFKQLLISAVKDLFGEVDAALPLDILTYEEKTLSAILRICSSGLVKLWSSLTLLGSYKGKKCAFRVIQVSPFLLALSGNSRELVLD
UniProt O43148, whole entry, looked up: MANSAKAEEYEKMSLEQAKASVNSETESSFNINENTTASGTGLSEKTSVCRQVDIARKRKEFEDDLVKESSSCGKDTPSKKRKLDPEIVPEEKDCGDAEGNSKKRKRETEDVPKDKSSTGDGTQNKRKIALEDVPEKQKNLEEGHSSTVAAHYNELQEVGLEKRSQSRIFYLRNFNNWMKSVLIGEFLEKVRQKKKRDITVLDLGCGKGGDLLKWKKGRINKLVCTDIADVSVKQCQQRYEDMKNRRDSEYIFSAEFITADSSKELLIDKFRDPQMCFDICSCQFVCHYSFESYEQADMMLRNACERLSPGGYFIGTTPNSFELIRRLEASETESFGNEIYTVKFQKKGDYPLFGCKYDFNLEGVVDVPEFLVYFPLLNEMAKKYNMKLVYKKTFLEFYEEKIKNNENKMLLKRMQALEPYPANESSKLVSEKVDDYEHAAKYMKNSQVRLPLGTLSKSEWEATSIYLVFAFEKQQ
UniProt Q9BWH6: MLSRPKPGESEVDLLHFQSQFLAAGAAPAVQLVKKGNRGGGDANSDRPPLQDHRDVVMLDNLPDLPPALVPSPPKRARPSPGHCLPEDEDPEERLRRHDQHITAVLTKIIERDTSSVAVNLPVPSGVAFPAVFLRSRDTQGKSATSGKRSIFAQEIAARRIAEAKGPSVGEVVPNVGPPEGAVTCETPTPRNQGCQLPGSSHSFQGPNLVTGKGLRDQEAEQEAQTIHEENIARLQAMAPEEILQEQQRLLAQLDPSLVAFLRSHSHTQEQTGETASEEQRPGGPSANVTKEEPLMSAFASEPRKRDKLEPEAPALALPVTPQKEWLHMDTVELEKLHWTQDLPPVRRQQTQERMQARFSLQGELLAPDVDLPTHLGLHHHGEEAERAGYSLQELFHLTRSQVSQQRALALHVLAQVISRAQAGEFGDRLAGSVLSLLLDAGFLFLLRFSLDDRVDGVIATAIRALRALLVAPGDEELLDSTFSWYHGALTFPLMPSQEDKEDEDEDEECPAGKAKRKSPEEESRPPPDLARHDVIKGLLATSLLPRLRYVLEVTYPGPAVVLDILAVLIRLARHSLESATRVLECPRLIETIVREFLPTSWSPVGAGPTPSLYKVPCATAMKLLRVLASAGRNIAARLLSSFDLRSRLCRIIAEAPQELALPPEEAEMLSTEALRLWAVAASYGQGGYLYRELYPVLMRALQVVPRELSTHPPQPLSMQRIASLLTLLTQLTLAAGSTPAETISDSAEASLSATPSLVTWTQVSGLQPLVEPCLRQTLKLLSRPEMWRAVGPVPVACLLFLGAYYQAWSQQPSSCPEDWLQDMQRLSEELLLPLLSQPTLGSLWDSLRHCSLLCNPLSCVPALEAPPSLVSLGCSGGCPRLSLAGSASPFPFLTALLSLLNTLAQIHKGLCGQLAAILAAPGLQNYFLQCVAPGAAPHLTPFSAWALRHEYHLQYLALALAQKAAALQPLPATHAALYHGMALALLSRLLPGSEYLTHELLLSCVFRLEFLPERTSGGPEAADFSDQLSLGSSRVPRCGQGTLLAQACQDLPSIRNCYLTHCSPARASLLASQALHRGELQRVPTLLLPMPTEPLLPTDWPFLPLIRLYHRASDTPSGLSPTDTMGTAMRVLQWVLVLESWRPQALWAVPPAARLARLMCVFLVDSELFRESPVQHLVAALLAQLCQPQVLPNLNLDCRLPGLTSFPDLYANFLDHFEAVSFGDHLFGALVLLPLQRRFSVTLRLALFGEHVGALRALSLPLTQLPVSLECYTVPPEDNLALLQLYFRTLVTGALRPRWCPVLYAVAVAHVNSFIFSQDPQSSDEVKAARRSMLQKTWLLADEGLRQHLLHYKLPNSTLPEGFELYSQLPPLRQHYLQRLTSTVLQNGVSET
UniProt Q9H4A4: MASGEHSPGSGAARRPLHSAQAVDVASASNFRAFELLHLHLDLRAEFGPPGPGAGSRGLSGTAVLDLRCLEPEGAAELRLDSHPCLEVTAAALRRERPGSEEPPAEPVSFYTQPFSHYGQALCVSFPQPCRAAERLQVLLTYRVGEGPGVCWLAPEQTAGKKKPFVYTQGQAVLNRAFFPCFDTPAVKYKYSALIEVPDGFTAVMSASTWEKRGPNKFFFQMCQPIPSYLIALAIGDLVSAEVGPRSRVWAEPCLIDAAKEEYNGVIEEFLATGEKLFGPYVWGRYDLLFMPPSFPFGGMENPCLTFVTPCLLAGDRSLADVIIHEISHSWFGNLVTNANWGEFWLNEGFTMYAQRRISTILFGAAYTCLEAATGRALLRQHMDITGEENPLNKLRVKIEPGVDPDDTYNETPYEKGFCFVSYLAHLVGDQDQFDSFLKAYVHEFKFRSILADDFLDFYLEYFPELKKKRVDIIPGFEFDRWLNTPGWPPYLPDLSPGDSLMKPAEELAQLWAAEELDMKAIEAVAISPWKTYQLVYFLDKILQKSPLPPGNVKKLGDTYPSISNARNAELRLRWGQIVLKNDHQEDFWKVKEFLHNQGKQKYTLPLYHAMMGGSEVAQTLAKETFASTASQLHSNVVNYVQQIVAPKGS
UniProt Q15287: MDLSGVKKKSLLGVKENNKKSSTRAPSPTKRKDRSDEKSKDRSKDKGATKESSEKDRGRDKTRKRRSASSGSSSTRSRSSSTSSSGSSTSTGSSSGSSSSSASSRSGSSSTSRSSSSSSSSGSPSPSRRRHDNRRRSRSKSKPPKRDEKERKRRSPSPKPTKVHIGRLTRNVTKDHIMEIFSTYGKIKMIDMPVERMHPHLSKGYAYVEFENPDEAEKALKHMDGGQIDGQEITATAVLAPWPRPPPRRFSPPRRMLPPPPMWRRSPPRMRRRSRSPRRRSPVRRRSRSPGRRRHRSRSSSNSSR
UniProt O60942: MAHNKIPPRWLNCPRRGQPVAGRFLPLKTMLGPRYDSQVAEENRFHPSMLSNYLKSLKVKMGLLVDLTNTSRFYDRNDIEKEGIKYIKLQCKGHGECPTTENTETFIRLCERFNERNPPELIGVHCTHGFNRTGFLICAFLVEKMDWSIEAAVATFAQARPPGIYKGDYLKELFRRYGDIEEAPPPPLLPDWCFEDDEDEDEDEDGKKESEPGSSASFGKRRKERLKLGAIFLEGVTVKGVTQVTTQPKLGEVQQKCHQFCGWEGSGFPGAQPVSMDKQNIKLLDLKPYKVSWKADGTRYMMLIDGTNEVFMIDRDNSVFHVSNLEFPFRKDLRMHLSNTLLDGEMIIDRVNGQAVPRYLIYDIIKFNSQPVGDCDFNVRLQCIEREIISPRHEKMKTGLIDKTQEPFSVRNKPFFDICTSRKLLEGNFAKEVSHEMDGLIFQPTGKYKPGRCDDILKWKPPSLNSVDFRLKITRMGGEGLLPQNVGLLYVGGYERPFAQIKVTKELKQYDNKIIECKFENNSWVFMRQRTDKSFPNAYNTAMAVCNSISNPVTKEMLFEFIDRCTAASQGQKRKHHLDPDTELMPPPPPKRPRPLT
UniProt Q01974, whole entry, looked up: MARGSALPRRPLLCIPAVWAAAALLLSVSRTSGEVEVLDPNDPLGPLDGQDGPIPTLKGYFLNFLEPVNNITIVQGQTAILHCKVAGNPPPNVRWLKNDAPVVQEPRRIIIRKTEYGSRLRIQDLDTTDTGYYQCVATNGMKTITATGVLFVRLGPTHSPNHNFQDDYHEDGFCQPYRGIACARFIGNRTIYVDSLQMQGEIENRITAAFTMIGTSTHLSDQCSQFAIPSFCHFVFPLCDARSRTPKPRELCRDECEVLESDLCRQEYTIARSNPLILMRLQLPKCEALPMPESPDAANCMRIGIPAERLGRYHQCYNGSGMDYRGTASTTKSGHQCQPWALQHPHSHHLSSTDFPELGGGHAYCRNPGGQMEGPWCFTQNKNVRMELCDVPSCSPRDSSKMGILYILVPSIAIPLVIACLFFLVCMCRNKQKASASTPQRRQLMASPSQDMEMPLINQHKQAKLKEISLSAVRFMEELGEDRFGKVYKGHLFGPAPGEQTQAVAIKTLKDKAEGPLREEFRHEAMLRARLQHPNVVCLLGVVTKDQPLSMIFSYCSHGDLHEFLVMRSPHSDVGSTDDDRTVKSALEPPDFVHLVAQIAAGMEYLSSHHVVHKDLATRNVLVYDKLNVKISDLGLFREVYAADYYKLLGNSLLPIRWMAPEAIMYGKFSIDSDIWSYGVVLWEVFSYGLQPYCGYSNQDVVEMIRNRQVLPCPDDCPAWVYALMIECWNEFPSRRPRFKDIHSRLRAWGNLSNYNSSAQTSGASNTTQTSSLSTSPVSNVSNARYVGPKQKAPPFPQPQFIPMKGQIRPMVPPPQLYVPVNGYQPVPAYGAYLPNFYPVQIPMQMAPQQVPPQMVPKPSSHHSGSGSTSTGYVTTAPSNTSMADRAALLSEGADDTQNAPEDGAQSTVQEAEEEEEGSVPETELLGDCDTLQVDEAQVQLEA
UniProt O75695: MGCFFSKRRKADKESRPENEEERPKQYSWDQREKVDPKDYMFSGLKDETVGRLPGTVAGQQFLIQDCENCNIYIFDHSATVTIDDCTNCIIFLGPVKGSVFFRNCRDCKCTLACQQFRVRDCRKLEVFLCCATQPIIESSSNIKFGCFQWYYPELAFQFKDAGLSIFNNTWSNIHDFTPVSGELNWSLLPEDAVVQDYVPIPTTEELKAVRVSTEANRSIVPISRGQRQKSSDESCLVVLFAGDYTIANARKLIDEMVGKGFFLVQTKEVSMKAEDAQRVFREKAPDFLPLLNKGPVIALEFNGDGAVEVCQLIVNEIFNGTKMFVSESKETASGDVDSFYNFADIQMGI
UniProt P49247: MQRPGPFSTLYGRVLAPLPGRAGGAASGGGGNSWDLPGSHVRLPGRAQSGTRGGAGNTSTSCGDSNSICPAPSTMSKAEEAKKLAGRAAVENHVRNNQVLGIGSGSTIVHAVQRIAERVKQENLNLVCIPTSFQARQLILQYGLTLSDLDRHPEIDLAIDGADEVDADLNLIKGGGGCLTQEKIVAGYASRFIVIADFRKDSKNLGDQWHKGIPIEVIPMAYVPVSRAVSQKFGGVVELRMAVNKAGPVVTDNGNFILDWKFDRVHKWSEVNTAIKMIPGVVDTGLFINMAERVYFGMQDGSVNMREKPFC
UniProt Q9BUL9: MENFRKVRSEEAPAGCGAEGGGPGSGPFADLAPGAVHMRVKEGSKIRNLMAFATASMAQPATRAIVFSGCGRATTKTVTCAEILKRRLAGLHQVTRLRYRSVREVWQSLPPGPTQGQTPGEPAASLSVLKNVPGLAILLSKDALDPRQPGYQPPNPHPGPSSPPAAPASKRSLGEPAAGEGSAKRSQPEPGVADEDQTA
UniProt Q96AT9: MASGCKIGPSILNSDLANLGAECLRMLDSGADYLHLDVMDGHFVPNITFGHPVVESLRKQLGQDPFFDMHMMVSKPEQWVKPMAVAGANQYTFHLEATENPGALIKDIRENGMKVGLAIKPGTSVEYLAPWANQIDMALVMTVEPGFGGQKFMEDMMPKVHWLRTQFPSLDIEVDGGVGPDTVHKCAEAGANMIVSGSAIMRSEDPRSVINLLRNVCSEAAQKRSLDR
UniProt P04844: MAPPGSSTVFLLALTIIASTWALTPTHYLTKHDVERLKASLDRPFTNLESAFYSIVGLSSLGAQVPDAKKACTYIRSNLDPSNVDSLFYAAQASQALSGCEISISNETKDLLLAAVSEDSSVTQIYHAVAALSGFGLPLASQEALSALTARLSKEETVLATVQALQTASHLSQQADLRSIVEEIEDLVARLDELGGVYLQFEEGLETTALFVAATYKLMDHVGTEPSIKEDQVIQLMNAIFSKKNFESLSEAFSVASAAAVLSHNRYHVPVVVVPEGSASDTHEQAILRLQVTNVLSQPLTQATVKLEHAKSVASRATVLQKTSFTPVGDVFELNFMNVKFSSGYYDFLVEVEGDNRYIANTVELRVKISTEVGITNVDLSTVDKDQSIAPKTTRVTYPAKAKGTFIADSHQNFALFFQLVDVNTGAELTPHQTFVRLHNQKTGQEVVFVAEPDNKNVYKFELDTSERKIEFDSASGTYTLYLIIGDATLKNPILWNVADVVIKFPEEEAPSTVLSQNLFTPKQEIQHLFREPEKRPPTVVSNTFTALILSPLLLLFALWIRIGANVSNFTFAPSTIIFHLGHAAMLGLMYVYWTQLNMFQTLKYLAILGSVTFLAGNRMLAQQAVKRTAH

Legend:
Experiment in all cases: log2 fold change, soluble protein after heating vs DMSO (PISA); higher = thermal stabilisation; K562 cells, 10 uM, 30 min; active = over 0.2 and 3.5 SD of the protein, either way, in both replicates (recomputed)
[1] = compound: C1=CC=C(C=C1)[C@H](COC2=CC3=C(C=C2)NC(=O)N3)NC(=O)C4=CC=CN(C4=O)CC5=CC(=C(C=C5)F)F
Procedure, shortened: (§1)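 Quantification of soluble protein used TMTpro 16plex LC-MS/MS, with channel sums equalised. Samples were the supernatant after 21,000xg for 90 min of pooled aliquots from K562 cells (2×10^6 cells/mL) treated with 10 μM compound for 30 min, heated for 3 min over 48°C-58°C, and extracted in PBS with 0.5% NP-40 at 4°C. Values, from duplicates, describe thermal stability against control samples on a log2 fold-change scale.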

[2] = compound: CC1=C(SC2=C1C(=N[C@H](C3=NN=C(N32)C)CC(=O)N)C4=CC=C(C=C4)Cl)C
Procedure, shortened: as §1

[3] = compound: CC1=C2C(=CC=C1)N=C(N(C2=O)C3=CC=CC=C3C)CN4C=NC5=C(N=CN=C54)N
Procedure, shortened: as §1

[4] = compound: Cc1sc2c(c1C)C(c1ccc(Cl)cc1)=N[C@@H](CC(=O)OC(C)(C)C)c1nnc(C)n1-2
Procedure, shortened: as §1

[5] = compound: c1ccc([C@@H]2C[C@H]2NC2CCNCC2)cc1
Procedure, shortened: as §1

Measured: log2 fold change

ROCK2 (UniProt O75116)
inactive: [1] -0.026 | [2] 0.003 | [3] 0.085 | [4] 0.024 | [5] -0.01

RPL23 (UniProt P62829)
inactive: [1] 0.09 | [2] -0.183 | [3] -0.143 | [4] 0.173 | [5] 0

RPS16 (UniProt P62249)
inactive: [1] 0.049 | [2] -0.149 | [3] -0.192 | [4] 0.043 | [5] -0.003

RPL10 (UniProt F8W7C6)
inactive: [1] 0.011 | [2] -0.208 | [3] -0.265 | [4] 0.167 | [5] 0.176

RPS6KC1 (UniProt Q96S38)
inactive: [1] -0.03 | [2] -0.072 | [3] 0.022 | [4] -0.091 | [5] -0.009

RNF41 (UniProt Q9H4P4)
inactive: [1] 0.039

RNF34 isoform 2 (UniProt Q969K3)
inactive: [1] 0.022 | [2] -0.081 | [3] 0.067 | [4] 0.07 | [5] 0.062

RPS12 (UniProt P25398)
inactive: [1] 0.032 | [2] -0.092 | [3] -0.066 | [4] 0.011 | [5] -0.019

RPP30 (UniProt Q5VU11)
inactive: [1] -0.123

RPP14 (UniProt O95059)
inactive: [1] 0.044 | [2] -0.023 | [3] -0.028 | [4] 0.002 | [5] -0.009

RPL12 (UniProt P30050)
inactive: [1] 0.23 | [2] -0.517 | [3] -0.382 | [4] 0.268 | [5] 0

RPL4 (UniProt P36578)
inactive: [1] 0.237 | [2] -0.569 | [3] -0.749 | [4] 0.344 | [5] -0.001

RPS13 (UniProt P62277)
inactive: [1] 0.142 | [2] -0.234 | [3] -0.246 | [4] 0.213 | [5] 0

RPL18A (UniProt Q02543)
inactive: [1] 0.239 | [2] -0.636 | [3] -0.722 | [4] 0.452 | [5] -0.001

RPS6KA1 isoform 2 (UniProt Q15418)
inactive: [1] -0.059 | [2] 0.048 | [3] 0.051 | [4] -0.009 | [5] -0.018

RPRD1B (UniProt Q9NQG5)
inactive: [1] -0.006 | [2] 0.06 | [3] 0.043 | [4] 0.009 | [5] 0.014

RRAGA (UniProt Q7L523)
inactive: [1] 0.004 | [2] 0.004 | [3] -0.045 | [4] -0.035 | [5] -0.002

RNMT isoform 2 (UniProt O43148)
inactive: [1] 0.064 | [2] -0.021 | [3] 0.017 | [4] 0.032 | [5] 0.059

RPS10 (UniProt P46783)
inactive: [1] 0.049 | [2] -0.106 | [3] -0.16 | [4] 0.078 | [5] 0

RPAP1 (UniProt Q9BWH6)
inactive: [1] -0.013 | [2] 0.071 | [3] 0.022 | [4] 0.028 | [5] -0.007

RPL5 (UniProt P46777)
inactive: [1] 0.071 | [2] -0.234 | [3] -0.195 | [4] 0.115 | [5] 0

RPUSD2 (UniProt Q8IZ73)
inactive: [1] 0.013 | [2] 0.002 | [3] -0.001 | [4] 0.011 | [5] 0.004

RNPEP (UniProt Q9H4A4)
inactive: [1] -0.043 | [2] 0.05 | [3] 0.047 | [4] -0.015 | [5] -0.021

RPS6KB1 (UniProt P23443)
inactive: [1] -0.072 | [2] 0.032 | [3] 0.002 | [4] -0.003 | [5] -0.029

RPS18 (UniProt P62269)
inactive: [1] 0.088 | [2] -0.125 | [3] -0.04 | [4] 0.099 | [5] 0.004

RRBP1 (UniProt Q9P2E9)
inactive: [1] 0.054 | [2] -0.342 | [3] -0.259 | [4] 0.35 | [5] 0

RNPS1 (UniProt Q15287)
inactive: [1] -0.019 | [2] 0.001 | [3] 0.032 | [4] 0.119 | [5] 0.061

RPS6KA2 isoform 2 (UniProt Q15349)
inactive: [1] -0.016 | [2] 0.045 | [3] 0.087 | [4] -0.015 | [5] -0.02

RNGTT (UniProt O60942)
inactive: [1] -0.055 | [2] 0.148 | [3] 0.085 | [4] -0.048 | [5] 0.004

RPS15 (UniProt P62841)
inactive: [1] 0.126 | [2] -0.113 | [3] -0.02 | [4] 0.122 | [5] 0.106

ROR2 (UniProt Q01974)
inactive: [1] -0.062 | [2] 0.004 | [3] 0.023 | [4] -0.048 | [5] -0.035

RPS27 (UniProt P42677)
inactive: [1] 0.042 | [2] 0.029 | [3] -0.027 | [4] 0.091 | [5] -0.172

RPL23A (UniProt P62750)
inactive: [1] 0.16 | [2] -0.256 | [3] -0.342 | [4] 0.156 | [5] 0

RNF40 (UniProt O75150)
inactive: [1] 0.059 | [2] -0.048 | [3] 0.283 | [4] -0.126 | [5] -0.002

RPS23 (UniProt P62266)
inactive: [1] 0.151 | [2] -0.312 | [3] -0.179 | [4] 0.246 | [5] -0.034

RPP25L (UniProt Q8N5L8)
inactive: [1] 0.032 | [2] -0.018 | [3] 0.026 | [4] 0.143 | [5] 0.033

RP2 (UniProt O75695)
inactive: [1] 0.022 | [2] 0.043 | [3] 0.133 | [4] -0.093 | [5] -0.049

RPIA (UniProt P49247)
inactive: [1] -0.006 | [2] 0.003 | [3] 0.047 | [4] -0.014 | [5] -0.013

RPL9 (UniProt P32969)
inactive: [1] 0.159 | [2] -0.491 | [3] -0.585 | [4] 0.322 | [5] -0.005

RPS17 (UniProt P08708)
inactive: [1] 0.116 | [2] -0.162 | [3] -0.116 | [4] 0.063 | [5] 0

RPP25 (UniProt Q9BUL9)
inactive: [1] 0.006 | [2] -0.059 | [3] -0.009 | [4] 0.074 | [5] -0.039

RPS25 (UniProt P62851)
inactive: [1] 0.046 | [2] -0.166 | [3] -0.139 | [4] 0.09 | [5] 0.002

RPL3L (UniProt Q92901)
inactive: [1] 0.226 | [2] -0.475 | [3] -0.739 | [4] 0.327 | [5] 0

RPE (UniProt Q96AT9)
inactive: [1] -0.048 | [2] 0.038 | [3] -0.033 | [4] -0.136 | [5] 0.068

RPN2 (UniProt P04844)
inactive: [1] 0.006 | [2] 0.004 | [3] -0.012 | [4] -0.022 | [5] -0.012

RPS19 (UniProt P39019)
inactive: [1] 0.108 | [2] -0.158 | [3] -0.197 | [4] 0.107 | [5] -0.002

RPL34 (UniProt P49207)
inactive: [1] 0.274 | [2] -0.589 | [3] -0.649 | [4] 0.314 | [5] -0.001

RPS20 isoform 2 (UniProt P60866)
inactive: [1] -0.002 | [2] -0.114 | [3] -0.051 | [4] 0.059 | [5] 0

Quoted from above (4 entries):
RPL3L (UniProt Q92901)
inactive: [1] 0.226 | [2] -0.475 | [3] -0.739 | [4] 0.327 | [5] 0

RPE (UniProt Q96AT9)
inactive: [1] -0.048 | [2] 0.038 | [3] -0.033 | [4] -0.136 | [5] 0.068

RPN2 (UniProt P04844)
inactive: [1] 0.006 | [2] 0.004 | [3] -0.012 | [4] -0.022 | [5] -0.012

RPS19 (UniProt P39019)
inactive: [1] 0.108 | [2] -0.158 | [3] -0.197 | [4] 0.107 | [5] -0.002

The listing continues:

RPL36AL (UniProt Q969Q0)
inactive: [1] 0.099 | [2] -0.36 | [3] -0.322 | [4] 0.192 | [5] 0

RPL8 (UniProt P62917)
inactive: [1] 0.236 | [2] -0.601 | [3] -0.765 | [4] 0.355 | [5] 0

RPL13 (UniProt P26373)
inactive: [1] 0.25 | [2] -0.599 | [3] -0.664 | [4] 0.408 | [5] 0.022

RPS29 (UniProt P62273)
inactive: [1] 0.053 | [2] -0.309 | [3] -0.185 | [4] 0.109 | [5] -0.058

RRM2B isoform 6 (UniProt Q7LG56)
inactive: [1] 0.01 | [2] 0.05 | [3] 0.056 | [4] -0.054 | [5] 0.032

RPL28 (UniProt P46779)
inactive: [1] 0.244 | [2] -0.491 | [3] -0.564 | [4] 0.31 | [5] -0.001

RPL14 (UniProt P50914)
inactive: [1] 0.225 | [2] -0.426 | [3] -0.758 | [4] 0.271 | [5] -0.023
